Measurements reported in PubChem BioAssay AID445 (National Center for Advancing Translational Sciences (NCATS), 2006).
The other results are listed elsewhere or left out. Further columns of the screen follow, without active or inactive calls. The list favours compounds with an active or inconclusive main result. Potencies come from curve fits of mixed quality, noted in brackets.

Test: IkB Signaling
Details: ABC-DLBCL IkBa-CBG/CBR dual luciferase ratio (green luciferase fused to IkBa over red control in OCI-Ly3 lymphoma cells), 4 h
Method in brief: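 Curves were fitted separately to fusion (green), unfused (red) and ratio luminescence, then classed by r2, magnitude and activity. Cells: OCI-Ly3, 4 h compound plus doxycycline at 37C; 10 uM MG-132 defined full response.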

[1] = measured here: control luc red channel unless noted

SMILES: Clc1ccc(-c2nc3nc4ccccc4nc3n2Cc2ccco2)cc1
- AC50 [1]: 0.0398 µM [falling, full curve]

SMILES: Cc1nc2sccn2c(=O)c1CCN1CCC(=C(c2ccccc2)c2ccc(F)cc2)CC1
- AC50 [1]: 31.6 µM [falling, partial curve]

SMILES: CCNC(=O)c1ccc2c(c1)nc1n2CCCCC1
- AC50 [1]: 1.58 µM [rising, full curve, poor fit]

SMILES: O=C(CN1CCN(c2ccccn2)CC1)Nc1ccc2ccccc2c1
- AC50 [1]: 31.6 µM [falling, single point]

SMILES: COc1cccc(N2CCN(C(=O)C3CCCN(S(=O)(=O)c4cccc5nsnc45)C3)CC2)c1 (stereo unspecified)
- AC50 [1]: 25.1 µM [falling, partial curve]

SMILES: CCOc1ccc(C(=O)c2cn(CC(=O)Nc3ccc4c(c3)OCO4)c3ccc(OC)cc3c2=O)cc1
- AC50 [1]: 15.8 µM [falling, partial curve]

SMILES: COc1ccc(OC)c(NC(=O)Cn2c(=O)c3cccn3c3ccccc32)c1
- AC50 [1]: 10 µM [falling, partial curve]

SMILES: Cc1ccc(S(=O)(=O)c2cn(CC(=O)Nc3cccc(Cl)c3)c3ccccc3c2=O)cc1
- AC50 [1]: 12.6 µM [falling, partial curve]

SMILES: Cc1ccc(Cl)cc1NC(=O)CSc1nc2ccccc2c2nc(-c3ccccc3)nn12
- AC50 [1]: 39.8 µM [rising, partial curve, poor fit]

SMILES: COc1cc(OC)c(-c2nn3c(-c4ccncc4)nnc3s2)cc1OC
- AC50 [1]: 7.94 µM [rising, partial curve]

SMILES: CCOc1ccc(C(=O)Nc2cc(-c3nc4cc(OC)ccc4o3)ccc2C)cc1[N+](=O)[O-]
- AC50 (measured here: IkB-luc green channel): 15.8 µM [rising, partial curve]
- AC50 (measured here: control luc red channel): 1.58 µM [falling, partial curve]

SMILES: COc1ccc(C(=O)Nc2nc(-c3cccs3)cs2)cc1
- AC50 [1]: 7.94 µM [falling, partial curve]

SMILES: CCn1c2ccccc2c2cc(CN3CCN(Cc4cc(OC)c(O)c(OC)c4)CC3)ccc21
- AC50 [1]: 15.8 µM [falling, partial curve]

SMILES: COc1cc2[nH]c(=O)n(Cc3ccc(C(=O)N4CCN(c5ccc(Cl)cc5)CC4)cc3)c(=O)c2cc1OC
- AC50 [1]: 7.94 µM [falling, partial curve]

SMILES: Cc1ccc(Cn2c(C)nc3c(c2=O)c2nc4ccccc4nc2n3Cc2ccco2)cc1
- AC50 [1]: 12.6 µM [falling, partial curve]

SMILES: CCc1cccc(NC(=O)CSc2nncn3c2cc2sccc23)c1
- AC50 [1]: 7.94 µM [falling, partial curve]

SMILES: COc1ccc(S(=O)(=O)NCCSc2nnnn2-c2ccccc2)cc1OC
- AC50 [1]: 0.398 µM [rising, full curve]

SMILES: CSc1nnc2c(n1)OC(C)N(C(=O)c1ccccc1)c1ccccc1-2 (stereo unspecified)
- AC50 [1]: 0.02 µM [falling, full curve]

SMILES: O=C(Nc1ccccc1Oc1ccccc1)c1ccc(Br)o1
- AC50 [1]: 20 µM [falling, partial curve]

SMILES: COc1cccc(C2C(C(=O)Nc3ccc(Cl)cc3)=C(C)Nc3nc4ccccc4n32)c1OC (stereo unspecified)
- AC50 [1]: 10 µM [falling, partial curve]

SMILES: COc1cccc(-n2cnc3scc(-c4cccs4)c3c2=O)c1
- AC50 [1]: 1.26 µM [rising, full curve]

SMILES: Cc1oc2ncn(CC(C)C)c(=O)c2c1C(=O)N(CCN(C)C)Cc1ccccc1
- AC50 [1]: 1 µM [rising, full curve, poor fit]

SMILES: CCCc1nnc(NC(=O)c2cc(=O)c3ccccc3o2)s1
- AC50 [1]: 39.8 µM [falling, single point]

SMILES: NC(=NCCCCCCN=C(N)/N=C(\N)Nc1ccc(Cl)cc1)/N=C(\N)Nc1ccc(Cl)cc1
- AC50 [1]: 31.6 µM [falling, partial curve]

SMILES: CCOC(=O)c1c(C)n(-c2ccccc2)c2ccc(OC(=O)COc3ccccc3)cc12
- AC50 [1]: 25.1 µM [falling, single point]

SMILES: COc1ccc(N2CCN(C(=O)C3CCCN(C(=O)c4cc5sccc5n4C)C3)CC2)cc1 (stereo unspecified)
- AC50 [1]: 5.01 µM [falling, partial curve]

SMILES: O=C(CSc1nc(=O)[nH]c2c1CCCC2)NCc1ccccc1Cl
- AC50 [1]: 3.98 µM [rising, partial curve]

SMILES: Cc1ccc(OCc2nc3ccccc3n2CC(C)C)cc1
- AC50 [1]: 31.6 µM [falling, single point]

SMILES: Cc1cc(C(=O)CSc2nc(N)cc(N)n2)c(C)n1CCc1ccc(F)cc1
- AC50 [1]: 7.94 µM [falling, partial curve]

SMILES: Cc1cc2c(cc1S(=O)(=O)NCc1ccc(N(C)C)cc1)OCC(=O)N2
- AC50 [1]: 39.8 µM [falling, single point]

SMILES: CCCN(C(=O)c1cc2c(s1)-c1ccccc1SC2)c1ccccc1F
- AC50 [1]: 1.26 µM [falling, full curve]

SMILES: Cc1ccc(CN2CCC(CNc3ncnc4onc(-c5ccc(Cl)cc5)c34)CC2)cc1
- AC50 [1]: 20 µM [falling, single point]

SMILES: CC1(c2ccc(Cl)cc2)CC(C)(C)N(C(=O)c2ccccc2)c2ccccc21 (stereo unspecified)
- AC50 [1]: 7.94 µM [falling, partial curve]

SMILES: COc1cccc(-n2ccnc2SCC(=O)Nc2cccc(C)c2C)c1
- AC50 [1]: 0.1 µM [falling, full curve]

SMILES: COc1ccc(-n2ncc(C(=O)NCc3ccccc3)c2C2CCN(C(=O)OC(C)(C)C)CC2)cc1
- AC50 [1]: 39.8 µM [falling, partial curve, poor fit]

SMILES: COc1ccc(-c2nc3c(C#N)c[nH]n3c2NC2CCCCC2)c(OC)c1
- AC50 [1]: 20 µM [falling, partial curve]

SMILES: COc1cccc(N2CCN(C(=O)C3CCC(CNS(=O)(=O)c4ccc(Br)s4)CC3)CC2)c1 (stereo unspecified)
- AC50 [1]: 6.31 µM [falling, single point]

SMILES: O=c1cc(-c2ccccc2)oc2cc(O)cc(O)c12
- AC50 [1]: 6.31 µM [falling, partial curve]

SMILES: CCn1c2ccccc2c2cc(C3C(C#N)=C(N)Oc4n[nH]c(COC)c43)ccc21 (stereo unspecified)
- AC50 [1]: 15.8 µM [falling, partial curve]

SMILES: Cc1ccc2c(c1)[nH]c1c(N3CCN(Cc4ccccc4)CC3)ncnc12
- AC50 [1]: 3.16 µM [falling, full curve]
